This note sets out measurements from PMC9989471, “The Key Roles of Mycobacterium tuberculosis FadD23 C-terminal Domain in Catalytic Mechanisms” (Frontiers in Microbiology, 2023).

These are yes or no findings as the source states them, for the method shown. Tags and fused reporters may be left off the sequences shown.

In assay [1] the target is Mycobacterium tuberculosis FadD23 (fatty acyl AMP ligase FadD23), expressed in E. coli (Mycobacterium tuberculosis H37Rv) (UniProt P9WQ47). In words: SEC; size exclusion chromatography of purified FadD23; both purified.
The target is the same in assay [2]. In words: AUC; analytical ultracentrifugation of purified FadD23; both purified.

B1: Mycobacterium tuberculosis FadD23 (fatty acyl AMP ligase FadD23), expressed in E. coli (enzyme, UniProt P9WQ47 1-584)
chain: MVSLSIPSMLRQCVNLHPDGTAFTYIDYERDSEGISESLTWSQVYRRTLNVAAEVRRHAAIGDRAVILAPQGLDYIVAFLGALQAGLIAVPLSAPLGGASDERVDAVVRDAKPNVVLTTSAIMGDVVPRVTPPPGIASPPTVAVDQLDLDSPIRSNIVDDSLQTTAYLQYTSGSTRTPAGVMITYKNILANFQQMISAYFADTGAVPPLDLFIMSWLPFYHDMGLVLGVCAPIIVGCGAVLTSPVAFLQRPARWLQLMAREGQAFSAAPNFAFELTAAKAIDDDLAGLDLGRIKTILCGSERVHPATLKRFVDRFSRFNLREFAIRPAYGLAEATVYVATSQAGQPPEIRYFEPHELSAGQAKPCATGAGTALVSYPLPQSPIVRIVDPNTNTECPPGTIGEIWVHGDNVAGGYWEKPDETERTFGGALVAPSAGTPVGPWLRTGDSGFVSEDKFFIIGRIKDLLIVYGRNHSPDDIEATIQEITRGRCAAIAVPSNGVEKLVAIVELNNRGNLDTERLSFVTREVTSAISTSHGLSVSDLVLVAPGSIPITTSGKVRRAECVKLYRHNEFTRLDAKPLQASDL
Consider B1, for which the binding result in assay [1] and in assay [2] was “no binding” each time.
